The values that follow come from PubChem BioAssay AID662 (National Center for Advancing Translational Sciences (NCATS), 2007).

Each structure is given as a SMILES string. Several values for one entry are separate records, joined by “and”; a condition that tells them apart may be missing. Equal entries are not always repeated. The list shows a part of the results. Shown are side measurements of this screen, not its main read-out; they come without a call. The list favours compounds with an active or inconclusive main result. The note in brackets gives the kind of curve behind each potency; many fits are weak.

A short description of the experiment: Cell signaling CRE-BLA (Fsk stim). As to conditions: CHO CRE-bla reporter (cAMP response element driving beta-lactamase), forskolin EC10, beta-lactamase ratio; measured here: 460 nm blue channel. The procedure, abridged:
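Using CellSensor CRE-bla CHO cells in Opti-MEM with 0.5% dialyzed FBS, compounds were titrated with EC10 NKH 477 for 3 h at 37 °C. CCF4 ratio (460/530 nm) gave %Activity; AC50 derived.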
Take `C1CCC(c2nn3c(-c4n[nH]c5c4CCC5)nnc3s2)CC1`: the AC50 was 10 µM [rising, partial curve].

Consider `O=C(c1cc(-c2ccc3c(c2)OCO3)on1)N1CCN(c2ccccc2)CC1`, for which the AC50 was 0.251 µM [falling, full curve]. With `O=C1NC(c2cccs2)Nc2sc3c(c21)CCCC3` (stereo not drawn), the AC50 was 10 µM [rising, single point]. Next, `COc1ccc(OC)c(C(=O)c2coc3ccc(O)cc23)c1`: 0.794 µM [rising, partial curve, poor fit]. Turning to `Cn1c(-n2c(CCCN3C(=O)c4ccccc4C3=O)nc3ccccc3c2=O)nc2ccccc21`, the concentration at half-maximal activity (AC50) was 10 µM [rising, partial curve]. Regarding `CC1(C)CC(=O)C2=C(C1)N(c1cccc(O)c1)C1=C(C2)C(=O)CC(C)(C)C1`, the AC50 is 12.6 µM [rising, partial curve]. The figure for `O=C(Nc1ccc2nc3n(c(=O)c2c1)CCCCC3)c1ccccn1` is 10 µM [rising, partial curve]; for `COc1cccc(-c2cncnc2NCc2ccccc2OC)c1` it is 3.16 µM [rising, single point]; for `c1ccc(/N=C2\N=C(Nc3ccccn3)c3ccccc32)nc1` it is 15.8 µM [rising, partial curve].

As for `CCN(CC)C(=O)CSc1nnc(-c2ccccc2)n1-c1ccccc1`, the AC50 was 25.1 µM [rising, single point]. On to `COCCn1c(=O)c(-c2ccccc2)nc2cnc(Nc3cccc(OC)c3)nc21`, for which the half-maximal activity concentration (AC50) was 2 µM [rising, full curve].

As for `COc1ccc2nc(NC(=O)c3ccc(Br)s3)sc2c1`, the concentration at half-maximal activity (AC50) was 25.1 µM [rising, single point].

As to `CCN1C(=O)c2cccc3c(S(=O)(=O)Nc4ccccn4)ccc1c23`, the AC50 was 5.01 µM [rising, partial curve]. The figure for `O=C(c1ccccc1)c1nc2ccccc2[nH]c1=O` is 1.58 µM [falling, partial curve]. Next, `O=c1c(-c2ccccc2)nc2cncnc2n1-c1ccccc1`: 12.6 µM [rising, partial curve]; `CCOc1cc(-c2c(C#N)c(=O)[nH]c3c2c(C)nn3-c2ccc(F)cc2)ccc1O`: 3.16 µM [rising, partial curve]; `Cc1ccc(S(=O)(=O)c2cc3c(=O)n4ccccc4nc3n(CC3CCCO3)c2=N)cc1C` (stereo not drawn): 5.01 µM [rising, partial curve].

Turning to `COc1cc2c(cc1OC)CN(C(=O)c1cc3ccccc3oc1=O)CC2`, the half-maximal activity concentration (AC50) is 12.6 µM [rising, single point].

Turning to `CCOC(=O)CCc1c(C)n(CC)c2cc(-c3ccccc3OC)nn2c1=O`, the AC50 was 0.00398 µM [falling, full curve, poor fit].

For the molecule `CCC(=NC(C)c1ccccc1)c1c(O)n(C)c(=O)n(C)c1=O` (stereo not drawn), the concentration at half-maximal activity (AC50) was 0.501 µM [rising, partial curve, poor fit]. Next, `O=c1c(CCc2ccccc2)nc2cnc(N3CCNCC3)nc2n1CCc1ccccc1`: 12.6 µM [rising, partial curve]; `Nc1cc(=O)[nH]n1C1CCN(c2ccccc2)CC1`: 1 µM [rising, single point]; `COc1ccc(C(=O)Nc2cccc(C(C)=O)c2)cc1OC`: 10 µM [rising, partial curve]. `CCOC(=O)Cc1nnc(NC(=O)c2ccccc2OCC)s1`: the AC50 is 12.6 µM [rising, partial curve]. Turning to `CSc1nc(N2CCOCC2)c2c3c(sc2n1)CCCC3`, the half-maximal activity concentration (AC50) was 10 µM [rising, partial curve]. As to `NC(=O)SCC(=O)Nc1cccc(Cl)c1`, the concentration at half-maximal activity (AC50) was 25.1 µM [falling, single point]. Turning to `Cn1c(=O)n(Cc2ccco2)c(=N)c2c3c(sc21)CCC3`, the concentration at half-maximal activity (AC50) was 10 µM [rising, partial curve]. With `CCCN(CC1CC1)c1nc(C)nc(Nc2c(Cl)cc(Cl)cc2Cl)c1Cl`, the AC50 is 20 µM [rising, partial curve, poor fit] and 5.01 µM [rising, partial curve, poor fit]. For `CCN(CC)C(=O)c1sc2nc(-c3ccncc3)[nH]c(=O)c2c1C`, the AC50 was 10 µM [rising, single point]. In the case of `COc1ccc(NC(=O)c2cc(CN3C(=O)c4ccccc4C3=O)ccc2OC)cn1`, the AC50 is 12.6 µM [rising, partial curve]. Take `Nc1ncnc2c1ncn2C1CCCC1`: the AC50 is 25.1 µM [rising, single point].

Take `Cc1nonc1NC(=O)OC1CCCCC1`: the AC50 was 0.0794 µM [rising, single point]. As to `COc1ccc(Br)cc1C1NC(=O)c2c(sc3c2CCN(C)C3)N1` (stereo not drawn), the AC50 is 10 µM [rising, partial curve]. In the case of `c1ccc(Cc2nc(-c3ccccn3)no2)cc1`, the concentration at half-maximal activity (AC50) was 0.00398 µM [falling, full curve, poor fit]. With `Cc1cc(-c2nnc3n2N=C(C(C)(C)C)CS3)n[nH]1`, the AC50 was 3.16 µM [rising, partial curve].

For the molecule `Fc1ccc(Nc2nc(Oc3ccc4c(c3)OCO4)nc(N3CCOCC3)n2)c(F)c1`, the AC50 is 10 µM [rising, partial curve]. Turning to `O=C(Nc1ccc2c(c1)oc1ccc(S(=O)(=O)N3CCCC3)cc12)C1CC1`, the concentration at half-maximal activity (AC50) was 25.1 µM [falling, single point]. The figure for `COCCn1c(N)c(NCc2ccccc2)c(=O)n(CC(=O)Nc2cc(C)ccc2C)c1=O` is 5.01 µM [falling, single point]; for `CN1C(=S)SC(N(O)C(=O)NC2CCCCC2)C1(C)C` (stereo not drawn) it is 0.316 µM [rising, full curve, poor fit]; for `COc1ccc(CNC(=O)c2cc3c(=O)n4ccccc4nc3n(Cc3ccco3)c2=N)cc1` it is 12.6 µM [rising, single point]. As to `Cn1c(C(=O)NCCC2=CCCCC2)cc2c(=O)n3ccccc3nc21`, the AC50 is 0.316 µM [rising, full curve]. Consider `N#Cc1c2c(c(NCCN3CCOCC3)n3c1nc1ccccc13)CCCC2`, for which the AC50 was 15.8 µM [rising, partial curve]. Next, `Cc1ccc2c(c1)N(Cc1ccncc1)C(=O)C(C)O2` (stereo not drawn): 12.6 µM [rising, single point]; `CCOC(=O)N1CCC(NC(=O)CCc2c(C)nc3nc(C)nn3c2C)CC1`: 0.126 µM [falling, full curve, poor fit]; `[N-]=[N+]=CC(=O)CNC(=O)[C@@H](Cc1ccccc1)N1C(=O)c2ccccc2C1=O`: 5.01 µM [rising, single point]. As to `CN(C)c1ncnc2ccc(-c3cccnc3)cc12`, the AC50 was 3.16 µM [rising, full curve]. On to `CCC/C=C(\CCC)C(NS(=O)(=O)CC12CCC(CC1=O)C2(C)C)c1ccc(C(=O)OC)cc1` (stereo not drawn), for which the AC50 was 2.51 µM [rising, partial curve]. Take `O=S(=O)(Nc1cccnc1)c1ccc(C2CCCCC2)cc1`: the AC50 was 15.8 µM [rising, partial curve, poor fit]. For the molecule `COc1ccc(-c2nnc3ccc(SC)nn23)cc1`, the AC50 was 20 µM [rising, single point]. Regarding `O=S(=O)(NCCOCC(F)(F)C(F)F)c1ccc2oc3ccccc3c2c1`, the AC50 is 12.6 µM [falling, single point]. The figure for `CCCCCCCC[N+](CCCCCCCC)(CCCCCCCC)CCCCCCCC` is 10 µM [falling, partial curve]; for `CCN=C1SC(CC(=O)Nc2ccc(C)cc2)C(=O)N1CC` (stereo not drawn) it is 5.01 µM [falling, partial curve]; for `CC1(C)CCC[C@@]2(C)[C@@H]1CC[C@]1(C)OC(=O)C[C@@H]21` it is 15.8 µM [rising, partial curve, poor fit]. For the molecule `CCOc1ccc(C(=O)N2CCN(C(=O)c3ccco3)CC2)cc1OCC`, the concentration at half-maximal activity (AC50) was 25.1 µM [rising, single point]. `Cn1c(=O)[nH]c(=O)c2c1nc(CN1CCN(c3cccc(Cl)c3)CC1)n2CCc1ccccc1`: the AC50 was 10 µM [rising, partial curve]. The figure for `O=C1OC(=O)[C@@H]2[C@@H]1[C@@H]1CC[C@H]2O1` is 2.51 µM [rising, full curve]; for `CCN(CC)C(=O)Oc1ccc2c(=O)c(-c3ccccc3)coc2c1` it is 3.98 µM [falling, partial curve]; for `CCCc1cc(=O)oc2cc(C)cc(OC(=O)c3ccco3)c12` it is 0.0631 µM [falling, partial curve]. Regarding `Cc1ccc(NC(=O)N(Cc2ccc3c(c2)OCO3)Cc2cc3cc4c(cc3[nH]c2=O)OCCO4)cc1`, the AC50 is 3.16 µM [rising, partial curve]. In the case of `CC(=O)c1n[nH]nc1NC(=O)c1ccccc1`, the concentration at half-maximal activity (AC50) is 3.16 µM [falling, full curve]. As for `CN1C(=O)N(C)C2(c3ccccc3)N(C)C(=O)NC12c1ccccc1` (stereo not drawn), the AC50 was 25.1 µM [rising, single point]. With `CCOc1ccc2nc(N3CCCCCC3)sc2c1`, the concentration at half-maximal activity (AC50) was 7.94 µM [rising, partial curve].

For the molecule `O=C(Nc1nccs1)c1cc(N2CCOCC2)nc2ccccc12`, the AC50 was 3.98 µM [falling, partial curve]. Consider `COC(=O)[C@H](C)NC(=O)Nc1ccccc1C(F)(F)F`, for which the AC50 is 7.94 µM [falling, partial curve, poor fit]. Consider `COc1ncc2nc(CCc3ccccc3)c(=O)n(C3CC3)c2n1`, for which the AC50 is 25.1 µM [rising, partial curve].

Turning to `COC(=O)COc1ccc(S(=O)(=O)NCc2cccnc2)cc1C`, the AC50 is 1.58 µM [falling, full curve, poor fit]. For `O=C(CCN1CCN(C/C=C/c2ccccc2)CC1)Nc1ccccc1`, the AC50 is 0.316 µM [rising, full curve]. Consider `COc1ccc(-n2c(SC3CCOC3=O)nc3ccccc3c2=O)cc1OC` (stereo not drawn), for which the AC50 is 12.6 µM [rising, single point].

The term AC50 denotes the midpoint of the concentration-response curve, whichever way the signal moves.
